Values from PubChem BioAssay AID686938 (Drosophila RNAi Screening Center, 2013).
The deposit covers about 23,000 reagents; shown is an unselected part of those that have a named target and a result. Of all reagents, 75 (0.33%) got an active call. 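Raw plate signals without normalisation; calls rest on plate z-scores that were not deposited; ratio present for only 364 wells.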 A number with no mark means an inactive call. Reagents against one gene are numbered here. Names joined by + are all predicted targets of the reagent. Reagent sequences are not shown. Not stated in the record: the dose of the treatment.

- Screen: 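Knock-downs reducing store-operated calcium influx in Drosophila cells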 (primary screen)
- System: Drosophila S2R+ cells
- Knock-down reagent: long dsRNA against Drosophila genes, about 0.25 µg dsRNA per well, roughly 10,000 cells
- Timing: 5 days of knock-down before the calcium assay
- Treatment: thapsigargin (SERCA pump blocker) to empty calcium stores; entry signal taken 4 min after adding it
- Measured: 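Duplicate raw fluo-4 intensities per well from a plate reader, at rest and four minutes after thapsigargin emptied calcium stores; entry-to-rest ratio filled for only some wells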
- Reading the numbers: calcium entry signal: higher = stronger calcium signal after store depletion; entry to resting ratio: higher = more calcium entry relative to resting level; resting calcium signal: higher = higher resting calcium signal
- Rule for the call: 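Hit if the duplicate-averaged plate z-score for entry over resting signal is under −3; wells with weak total dye signal (Fmax z < −2) or more than 5 off-targets removed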
- Meaning of the calls: active = strongly reduced calcium entry; inactive = no strong reduction

no.	Gene	dsRNA no.	calcium entry signal, replicate 1 (fluorescence units)	calcium entry signal, replicate 2 (fluorescence units)	entry to resting ratio	resting calcium signal, replicate 1 (fluorescence units)	resting calcium signal, replicate 2 (fluorescence units)
1	Odj (Oddjob)	1	4.08e7	3.78e7		2.09e7	1.80e7
2	Upf3	1	3.23e7			1.61e7	
3	P5CS (Delta[1]-pyrroline-5-carboxylate synthase)	1	3.69e7	4.93e7		1.76e7	3.09e7
4	P5CS (Delta[1]-pyrroline-5-carboxylate synthase)	2	2.90e7	5.47e7		1.48e7	2.26e7
5	Or42a (Odorant receptor 42a)	1	3.93e7	4.74e7		2.06e7	2.12e7
6	mub (mushroom-body expressed)	1	3.71e7	4.85e7		1.72e7	3.11e7
7	ncd (non-claret disjunctional)	1	3.02e7	3.68e7		1.49e7	1.74e7
8	Cerk (Ceramide kinase)	1	2.39e7	3.27e7		1.16e7	1.50e7
9	TwdlF (TweedleF)	1	3.84e7	4.45e7		1.75e7	3.21e7
10	CG1416	1	4.56e7			2.03e7	
11	Rab4 + CG42239	1	3.76e7	4.43e7		1.60e7	1.92e7
12	CG3690	1	5.70e7	4.92e7	2.1	2.68e7	2.27e7
13	CG3690	2	6.14e7	5.64e7	2.2	2.84e7	2.46e7
14	Atg14 (Autophagy-related 14)	1	2.86e7	3.47e7		1.34e7	1.77e7
15	Obp57e (Odorant-binding protein 57e)	1	2.27e7	4.55e7		1.16e7	2.11e7
16	CG42361	1	4.04e7	4.25e7		2.10e7	2.08e7
17	Atg101 (Autophagy-related 101)	1	5.08e7	3.45e7		2.21e7	1.43e7
18	CG1638	1	2.11e7	3.21e7	1.8	1.16e7	1.30e7
19	Npc1a (Niemann-Pick type C-1a)	1	4.01e7	4.88e7		1.86e7	2.10e7
20	Faa (Fumarylacetoacetase)	1	4.76e7	2.90e7		3.04e7	1.31e7
21	CG11076	1	3.56e7	5.77e7	1.9	1.86e7	2.55e7
22	PNKP (Polynucleotide kinase 3'-phosphatase)	1	2.69e7	2.03e7		1.37e7	1.04e7
23	CG15531	1	2.37e7	3.06e7		1.32e7	1.41e7
24	Mob4 (MOB kinase activator 4)	1	3.82e7			1.93e7	

4 of these entries in another layout:
Odj (Oddjob)
- calcium entry signal, replicate 1 (fluorescence units): 4.08e7
- calcium entry signal, replicate 2 (fluorescence units): 3.78e7
- resting calcium signal, replicate 1 (fluorescence units): 2.09e7
- resting calcium signal, replicate 2 (fluorescence units): 1.80e7

Upf3
- calcium entry signal, replicate 1 (fluorescence units): 3.23e7
- resting calcium signal, replicate 1 (fluorescence units): 1.61e7

P5CS (Delta[1]-pyrroline-5-carboxylate synthase) #1
- calcium entry signal, replicate 1 (fluorescence units): 3.69e7
- calcium entry signal, replicate 2 (fluorescence units): 4.93e7
- resting calcium signal, replicate 1 (fluorescence units): 1.76e7
- resting calcium signal, replicate 2 (fluorescence units): 3.09e7

P5CS (Delta[1]-pyrroline-5-carboxylate synthase) #2
- calcium entry signal, replicate 1 (fluorescence units): 2.90e7
- calcium entry signal, replicate 2 (fluorescence units): 5.47e7
- resting calcium signal, replicate 1 (fluorescence units): 1.48e7
- resting calcium signal, replicate 2 (fluorescence units): 2.26e7

Continued:
no.	Gene	dsRNA no.	calcium entry signal, replicate 1 (fluorescence units)	calcium entry signal, replicate 2 (fluorescence units)	entry to resting ratio	resting calcium signal, replicate 1 (fluorescence units)	resting calcium signal, replicate 2 (fluorescence units)
25	CG34166	1	3.54e7	1.75e7		1.86e7	1.02e7
26	eIF3k (eukaryotic translation initiation factor 3 subunit k)	1	2.59e7			1.43e7	
27	CG34125	1	4.25e7	3.76e7		2.21e7	1.82e7
28	CG43108	1	3.02e7	3.81e7		1.43e7	1.99e7
29	CG14635	1	5.09e7	5.60e7	2.1	2.42e7	2.24e7
30	CG17780	1	3.35e7	5.42e7		1.77e7	2.18e7
31	CG30049	1	4.80e7	3.04e7		2.18e7	1.33e7
32	CG12688 (retired record)	1	2.34e7	4.45e7		1.30e7	2.35e7
33	CG12688 (retired record)	2	2.93e7	4.21e7		1.37e7	2.34e7
34	rols (rolling pebbles)	1	3.76e7	4.86e7		2.08e7	2.19e7
35	rols (rolling pebbles)	2	3.23e7	4.53e7		1.63e7	2.03e7
36	rols (rolling pebbles)	3	3.79e7	4.54e7		1.90e7	2.03e7
37	Polr2C (RNA polymerase II subunit C)	1	1.38e7			9.80e6	
38	Spn42Dd (Serpin 42Dd)	1	2.33e7	2.51e7		1.01e7	1.20e7
39	Spn42Dd (Serpin 42Dd)	2	3.14e7	4.16e7		1.59e7	2.45e7
40	CG2202	1	4.48e7	3.43e7		1.88e7	1.62e7
41	aqz (aaquetzalli)	1	6.24e7	4.41e7		3.25e7	2.10e7
42	Tasp1 (Taspase 1)	1	4.29e7	4.69e7		2.00e7	3.24e7
43	CG4611	1	2.74e7	4.48e7		1.38e7	1.94e7
44	pAbp (poly(A) binding protein)	1	2.42e7 (active)	2.47e7		1.86e7	1.69e7
45	CG34227	1	2.66e7	2.90e7		1.36e7	1.24e7
46	CG34227	2	3.01e7	2.58e7		1.43e7	1.18e7
47	X11L	1	2.62e7	4.84e7		1.23e7	2.08e7
48	X11L	2	2.13e7	2.66e7		1.12e7	1.23e7
49	CG17493	1	3.31e7	4.40e7		2.21e7	2.08e7
50	CG1602	1	3.90e7	3.82e7		1.82e7	1.66e7
51	Spred (Sprouty-related protein with EVH-1 domain)	1	4.33e7	4.36e7		1.84e7	2.09e7
52	Su(H) (Suppressor of Hairless)	1	3.93e7	2.43e7		1.59e7	1.12e7
53	CG13721	1	2.04e7	3.17e7		1.09e7	1.43e7
54	Vha68-1 (Vacuolar H[+] ATPase 68kD subunit 1)	1	5.12e7	3.94e7		2.26e7	1.67e7
55	CG33096	1	4.84e7	4.09e7		2.22e7	1.72e7
56	CG6983	1	4.00e7	3.18e7		2.73e7	1.34e7
57	kipf (kipferl)	1	4.74e7	5.99e7		2.19e7	2.68e7
58	kipf (kipferl)	2	2.75e7	3.29e7		1.78e7	1.65e7
